Experimental data: PubChem BioAssay AID652243 (Drosophila RNAi Screening Center, 2013)

Screen: 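Knock-downs that decrease or increase androgen receptor reporter signal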 (primary screen)
Cells: Drosophila S2R+ cells
Reagent: long dsRNA against Drosophila genes
Duration: 72 h (48 h, then 24 h hormone)
Challenge: synthetic androgen R1881 at 10 nM for 24 h
Measurement: 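Per-well raw luminescence of the androgen-driven firefly reporter and of the Renilla control, two replicates each, without normalisation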
Reading the numbers: firefly reporter light: higher = more light from androgen-responsive reporter; Renilla control light: higher = more constitutive control signal (cell number, transfection)
Call rule: 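Hit when the log firefly-to-Renilla ratio dropped or increased by a fixed fold versus the mean of GFP or LacZ controls across duplicate plates; lowering cut given as 1.5 and as 3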
Meaning of the calls: active = hit: reporter lowered or raised; inactive = no hit
The screen tested about 24,000 reagents; shown is a random part of those with a known target gene and a result. Over the whole deposit, 246 (1%) are marked active. 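Plates not normalised; calls are printed but the firefly/Renilla ratio behind them is not deposited; fold cut for lowering reported inconsistently.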 The raw values are shown without normalisation. The numbers tell different reagents against one gene apart. A plus sign joins genes that one reagent is predicted to hit. No sequences are given here. Not given: the amount of reagent.

no.	gene	dsRNA no.	firefly reporter light, replicate 1	firefly reporter light, replicate 2	Renilla control light, replicate 1	Renilla control light, replicate 2	Call
1	alpha-PheRS	1	92314	63712	3.96e5	4.86e5	inactive
2	alpha-PheRS	2	5.26e5	4.22e5	5.94e5	8.10e5	inactive
3	spoon	1	83719	71216	6.65e5	4.17e5	inactive
4	spoon	2	5.64e5	5.43e5	5.03e5	5.37e5	inactive
5	fest	1	57569	53100	9.95e5	1.09e6	inactive
6	fest	2	1.10e6	9.69e5	1.09e6	1.00e6	inactive
7	Lcp2	1	3.61e5	3.96e5	2.25e6	1.87e6	inactive
8	Or7a	1	2.88e5	4.45e5	2.22e6	3.83e6	inactive
9	Sfxn1-3	1	51225	54829	1.69e6	1.18e6	inactive
10	Cenp-C	1	90856	98867	1.83e6	1.68e6	inactive
11	Cenp-C	2	9.14e5	9.44e5	1.07e6	1.14e6	inactive
12	Or65b	1	1.17e5	1.45e5	3.85e5	4.02e5	inactive
13	CG5681	1	2.94e5	3.29e5	2.84e6	3.30e6	inactive
14	CG5681	2	6.42e5	9.48e5	9.06e5	9.76e5	inactive
15	siz	1	2.05e5	1.56e5	1.95e6	2.08e6	inactive
16	siz	2	5.67e5	5.42e5	1.81e6	1.92e6	inactive
17	siz	3	2.67e5	2.71e5	4.59e5	4.31e5	inactive
18	Rab4 + CG42239	1	1.40e5	1.82e5	3.85e5	3.67e5	inactive
19	CG6294 + CG6299 + CG15642	1	5.66e5	8.14e5	4.69e6	4.31e6	inactive
20	poe	1	1.38e6	1.05e6	2.61e6	2.75e6	inactive
21	poe	2	1.40e5	2.58e5	5.50e5	9.21e5	active
22	7B2	1	1.13e5	1.50e5	2.26e6	2.03e6	inactive
23	Npc2b	1	1.42e5	1.53e5	2.13e6	2.08e6	inactive
24	CG30269	1	3.22e5	3.59e5	2.34e6	1.86e6	inactive
25	CG12065	1	1.01e5	1.07e5	6.55e5	5.90e5	inactive
26	CG12065	2	3.56e5	3.38e5	3.85e6	3.46e6	inactive
27	CG13331	1	58008	59387	1.26e6	1.26e6	inactive
28	Sps2	1	1.03e5	1.28e5	6.76e5	8.12e5	inactive
29	Prx4	1	1.34e5	1.06e5	1.06e6	9.08e5	inactive
30	Prx4	2	6.28e5	4.46e5	4.46e5	5.08e5	inactive
31	CG14613	1	83099	63972	6.76e5	6.96e5	inactive
32	CG14613	2	3.74e5	2.81e5	4.86e5	5.32e5	inactive
33	CG14043	1	1.32e5	52594	1.18e6	8.50e5	inactive
34	CG14043	2	4.00e5	3.93e5	1.27e6	1.09e6	inactive

Laid out differently: 3 of the entries above
{"gene": "CG12065", "dsRNA no.": 2, "firefly reporter light, replicate 1": 3.56e5, "firefly reporter light, replicate 2": 3.38e5, "Renilla control light, replicate 1": 3.85e6, "Renilla control light, replicate 2": 3.46e6, "Call": "inactive"}
{"gene": "CG13331", "dsRNA no.": 1, "firefly reporter light, replicate 1": 58008, "firefly reporter light, replicate 2": 59387, "Renilla control light, replicate 1": 1.26e6, "Renilla control light, replicate 2": 1.26e6, "Call": "inactive"}
{"gene": "Sps2", "dsRNA no.": 1, "firefly reporter light, replicate 1": 1.03e5, "firefly reporter light, replicate 2": 1.28e5, "Renilla control light, replicate 1": 6.76e5, "Renilla control light, replicate 2": 8.12e5, "Call": "inactive"}

Further reagents:
no.	gene	dsRNA no.	firefly reporter light, replicate 1	firefly reporter light, replicate 2	Renilla control light, replicate 1	Renilla control light, replicate 2	Call
35	ect	1	4.03e5	3.95e5	2.28e6	2.78e6	inactive
36	ect	2	1.02e5	97095	2.29e6	1.59e6	inactive
37	ect	3	7.02e5	7.88e5	1.62e6	1.21e6	inactive
38	ect	4	6.15e5	4.08e5	2.23e6	1.60e6	inactive
39	CG15543	1	2.07e5	1.73e5	1.74e6	2.13e6	inactive
40	Plp	1	1.29e5	1.73e5	1.49e6	1.92e6	inactive
41	Plp	2	1.30e5	1.54e5	1.49e6	1.40e6	inactive
42	Plp	3	2.93e5	8.39e5	7.29e5	1.88e6	inactive
43	CG13244	1	7.17e5	6.06e5	2.59e6	2.04e6	inactive
44	Mco3	1	2.25e5	2.88e5	3.33e6	3.29e6	inactive
45	CG15185	1	1.59e5	1.38e5	2.71e6	2.19e6	inactive
46	CG3942	1	1.36e5	1.60e5	1.50e6	2.04e6	inactive
47	CG3942	2	3.68e5	3.38e5	5.44e5	5.60e5	inactive
48	Trxr1	1	1.29e5	53395	1.02e6	7.43e5	inactive
49	Trxr1	2	6.76e5	5.97e5	2.10e6	2.32e6	inactive
50	Trxr1	3	2.94e5	3.66e5	6.47e5	4.13e5	inactive
51	Sox21a	1	1.47e5	1.54e5	1.11e6	1.31e6	inactive
52	Sox21a	2	3.69e5	3.00e5	6.02e5	5.10e5	inactive
53	BG642312	1	3.88e5	2.55e5	1.56e6	1.04e6	inactive
54	CG5645	1	6.56e5	4.93e5	1.27e6	1.25e6	inactive
55	CG9106	1	76892	72319	6.51e5	6.64e5	inactive
56	CG9106	2	5.47e5	7.59e5	8.33e5	7.25e5	inactive
57	cta	1	1.13e6	7.68e5	2.79e6	3.17e6	inactive
58	Pkc53E	1	5.90e5	5.17e5	6.25e5	6.22e5	inactive
59	Pkc53E	2					inactive
